# Measured values taken from PubChem BioAssay AID504834 (National Center for Advancing Translational Sciences (NCATS), 2011).
# Hit rate of the full screen: of about 320,000 compounds, about 22,000 (6.9%) were called active. The inconclusive results got no clear call from the source; some entries with a clear call stand among them for comparison. Calls follow the shape of the dose curve; as a rule, active = well fitted inhibition curve with a large enough effect; inconclusive = small, poorly fitted or top-dose-only effect, or another doubt; inactive = no such curve, though single readings can be large or run the other way. Where the call is inconclusive, the potency comes from a doubtful curve fit.
# Experiment: Primary qHTS for delayed death inhibitors of the malarial parasite plastid, 96 hour incubation
# Details: P. falciparum luciferase reporter growth; series mostly up to 28.7 µM; activity change, negative = inhibition: at the top concentration
# Outline: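 Infected RBCs, 2% Hct / 0.05% parasitemia final; luciferase-reporter P. falciparum; cpd 96 h, 37 C, 5% CO2; luciferase detection reagent; luminescence.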
# % is scaled to controls: 0 for no effect and ±100 for the full control effect; potency is read from the fitted curve at half-maximal effect.
Compound,Potency,"activity change, negative = inhibition"
CC1CN(C(=O)CCC(=O)NCCc2ccccc2)c2ccccc2O1 (stereo unspecified),"inconclusive: 18.5 µM [inhibitor, single point]",–
Cc1cccc(C)c1OCC(=O)Nc1cccc(-c2nnc(-c3ccccc3)o2)c1,–,inactive: 1.55%
CCN(CC(=O)Nc1c(F)cccc1F)C(=O)c1ccc(C#N)cc1,–,inactive: 3.8%
CC(C)CN(C(=O)COC(=O)c1ccccc1Sc1ccccc1C#N)C1CCS(=O)(=O)C1 (stereo unspecified),"inconclusive: 10.4 µM [inhibitor, partial curve, poor fit]",–
Cc1ccc(C(=O)N/N=C\c2ccc(-c3ccc(Cl)c(Cl)c3)o2)cn1,–,inactive: -52%
CCc1nn(CCCC(=O)Nc2ccc(C)c(C)c2)c(=O)c2cc3occc3n12,–,inactive: 0.0935%
O=C(O)CSc1nnc(CNc2cccc(C(F)(F)F)c2)n1Cc1ccco1,active: 6.57 µM,–
O=c1ccc(-c2ccc(S(=O)(=O)Nc3ccc(F)cc3)s2)n[nH]1,"inconclusive: 18.5 µM [inhibitor, single point]",–
COc1ccc(/C=N/NC(=O)c2ccc(Cl)cc2)cc1Cn1cc(Cl)cn1,"inconclusive: 0.522 µM [inhibitor, full curve, poor fit]",–
O=C(NCC1CCCO1)c1cc2ccccc2cc1O (stereo unspecified),"inconclusive: 16.5 µM [inhibitor, single point]",–
CN1CCN(c2nc3c(c(=O)[nH]c(=O)n3C)n2Cc2ccc(Cl)cc2)CC1,"inconclusive: 6.57 µM [inhibitor, single point]",–
O=C(CS(=O)(=O)Cc1ccccc1)Nc1ccc(Cl)cn1,–,inactive: 15.7%
CC(=O)c1ccc(OCC(=O)N2CCN(S(=O)(=O)c3ccc(C)cc3C)CC2)cc1,active: 9.28 µM,–
COCc1cc(CN2CCCC(C(=O)c3cccc(C(F)(F)F)c3)C2)ccc1OC (stereo unspecified),–,inactive: 94.2%
COc1ccc(C(=O)/C=C/c2cccc(OCc3ccccc3)c2)cc1CSCC(=O)O,active: 4.65 µM,–
CCCCCCN1CCN(c2ccccc2Cl)CC1,"inconclusive: 18.5 µM [inhibitor, single point]",–
COc1ccc(/C=N/NC(=O)c2cccnc2)cc1O,–,inactive: 3.08%
CCOC(=O)Nc1nnc(-c2ccc(OC)cc2)s1,"inconclusive: 18.5 µM [inhibitor, single point]",–
O=[N+]([O-])c1cccc(C(=S)N2CCN(c3ccccc3)CC2)c1,"inconclusive: 11.7 µM [inhibitor, partial curve, poor fit]",–
COc1ccccc1NC(=O)N(Cc1ccco1)Cc1cc2cccc(C)c2[nH]c1=O,active: 13.1 µM,–
Cc1ccccc1NC(=O)COC(=O)c1ccc2c(c1)OCCO2,–,inactive: 19.1%
CC1CCN(CCn2c(=S)[nH]c3ccccc3c2=O)CC1,"inconclusive: 11.7 µM [inhibitor, single point]",–
CCn1c(-c2cc(-c3cc(OC)ccc3OC)nc3ccccc23)n[nH]c1=S,active: 0.37 µM,–
COc1ccc(-c2oc3ccccc3c2C(=O)OCc2ccc([N+](=O)[O-])cc2)cc1,–,inactive: 33.8%
C=CCNC(=S)Nc1cccc2[nH]ncc12,–,inactive: 125%
CCCn1nc2cc(C(=O)NCCc3cccs3)ccc2c1OCC,–,inactive: 37.9%

# Grouped by structure: the compounds so far containing a nitro group on carbon
Compound,Potency,"activity change, negative = inhibition"
O=[N+]([O-])c1cccc(C(=S)N2CCN(c3ccccc3)CC2)c1,"inconclusive: 11.7 µM [inhibitor, partial curve, poor fit]",–
COc1ccc(-c2oc3ccccc3c2C(=O)OCc2ccc([N+](=O)[O-])cc2)cc1,–,inactive: 33.8%

# Additional records

Compound,Potency,"activity change, negative = inhibition"
CC(C)CN(C(=O)CN(C)C(=O)Cc1ccccc1Cl)c1c(N)n(CC(C)C)c(=O)[nH]c1=O,"inconclusive: 11.7 µM [inhibitor, single point]",–
O=C1c2oc3ccc(F)cc3c(=O)c2C(c2ccccc2)N1CC1CCCO1 (stereo unspecified),–,inactive: 4.71%
CC1(C)C(=O)Nc2ccccc2N1C(=O)COC(=O)c1ccc(NC(N)=O)cc1,"inconclusive: 0.294 µM [inhibitor, full curve, poor fit]",–
CCc1nnc(NC(=O)CN2CCN(Cc3cccc(F)c3)CC2)s1,"inconclusive: 0.0522 µM [inhibitor, full curve, poor fit]",–
COc1ccc(CCN(C)C/C=C/c2ccccc2[N+](=O)[O-])cc1OC,"inconclusive: 18.5 µM [inhibitor, single point]",–
Cc1ccc(S(=O)(=O)N2CCN(C(=O)COC(=O)COc3cccc4c3OC(C)(C)C4)CC2)cc1,–,inactive: 2.07%
COc1ccc(C(=O)NCc2nnc(SCC(=O)N3CCc4ccccc43)n2CCc2ccccc2)cc1,"inconclusive: 5.86 µM [inhibitor, partial curve]",–
COCCn1c(N2CCN(c3ccccc3)CC2)nc2c1c(=O)n(C)c(=O)n2C,–,inactive: 37.4%
Cc1noc(C)c1S(=O)(=O)N(CC(=O)N1CCCC1)c1ccc(C(C)C)cc1,"inconclusive: 9.28 µM [inhibitor, partial curve, poor fit]",–
O=C(NCCCn1ccnc1)C1CCCN(S(=O)(=O)c2ccc(F)cc2)C1 (stereo unspecified),"inconclusive: 0.037 µM [inhibitor, full curve, poor fit]",–
C#CCn1c(S(=O)(=O)Cc2ccc(C)cc2)nc(-c2ccccc2)c1-c1ccccc1,"inconclusive: 10.4 µM [inhibitor, partial curve]",–
O=S(=O)(c1ccc2ccccc2c1)N1CCOCC1,–,inactive: -14.3%
COC(=O)Cn1c(=O)n(CCc2ccccc2)c(=O)c2c3c(sc21)CCCC3,"inconclusive: 9.28 µM [inhibitor, single point]",–
CCCCOC(=O)Oc1ccc2c(=O)c(Oc3cc(C)cc(C)c3)coc2c1,–,inactive: 1.98%
N#Cc1nc(-c2cccs2)oc1NCc1ccc2c(c1)OCO2,–,inactive: -9.3%
c1ccc2c(c1)ncn2CCC1CCCCC1,"inconclusive: 18.5 µM [inhibitor, single point]",–
CCOc1cccc(-c2nnc3n2N=C(c2cc(OC)ccc2OC)CS3)c1,active: 11.7 µM,–
CCN(C1CCCCC1)S(=O)(=O)CCNC(=O)c1ccccc1,–,inactive: 7.01%
CN(CCCNC(=O)c1ccc(/C=N/O)nc1)CCCN(C)Cc1ccccc1,"inconclusive: 0.586 µM [inhibitor, partial curve, poor fit]",–
O=C(CSc1nc2ccc(Cl)cc2[nH]1)N1CCN(C(=O)c2ccco2)CC1,"inconclusive: 18.5 µM [inhibitor, single point]",–
Cc1ccccc1-c1nc2sc3c(c2c(=O)n1N)CCCC3,active: 4.65 µM,–
COc1ccc(-n2nc(C(=O)NCC(=O)N3CCC4(CC3)OCCO4)c3ccccc3c2=O)cc1OC,active: 4.65 µM,–
COc1cc(NC(=O)CCCOc2ccc(Cl)cc2Cl)c(C(=O)O)cc1OC,–,inactive: 5.41%
COc1ccc(NC(=S)NC2CC3CCC2C3)c(OC)c1 (stereo unspecified),"inconclusive: 14.7 µM [inhibitor, partial curve, poor fit]",–
COc1ccc(C(=O)NCc2ccc3c(c2)OCO3)cc1,–,inactive: 32.7% [at 5.75 µM]
C/C(=N\NC(=O)c1ccccn1)c1ccc(Cl)cc1,–,inactive: 9.35%

Compound,Potency,"activity change, negative = inhibition"
Cc1oc(C(=O)O)cc1COc1cccc2cccnc12,"inconclusive: 0.0165 µM [inhibitor, full curve, poor fit]",–
Cc1c(C(c2ccc(O)cc2)c2c(C)n(C)n(-c3ccccc3)c2=O)c(=O)n(-c2ccccc2)n1C,–,inactive: 0%
Cc1cccc(OCc2nnc(NC(=O)Cc3cccs3)s2)c1,–,inactive: -26.3%
Cc1ccc(/C=N/n2c(-c3ccncc3)n[nH]c2=S)s1,"inconclusive: 18.5 µM [inhibitor, single point]",–
O=S(=O)(c1ccccc1)N1CCC(O)(CSc2ccc(F)cc2)CC1,–,inactive: 2.39%
CC(C)CC1NC(=O)N(CC(=O)N2c3ccccc3NC(=O)C2(C)C)C1=O (stereo unspecified),–,inactive: -2.98%
CCc1cccc(C)c1NC(=S)N(CCOC)C(C)c1ccco1 (stereo unspecified),–,inactive: 10.3%
CCCCn1c(NC(C)CC)nc2c1c(=O)[nH]c(=O)n2C (stereo unspecified),active: 4.65 µM,–
Cc1ccc(-c2csc(NC(=O)N3CCOCC3)n2)cc1,–,inactive: 2.82%
CSCCOC(=O)COc1ccc(/C=N/NC(=O)c2nn(C)cc2Cl)cc1,–,inactive: -34.6%
C/C(=N\NS(=O)(=O)c1ccc([N+](=O)[O-])cc1)c1cccs1,"inconclusive: 0.329 µM [inhibitor, full curve, poor fit]",–
Cc1cccc(C)c1NC(=O)CN(C)C(=O)c1cccc(S(=O)(=O)N2CCN(c3ccccc3)CC2)c1,"inconclusive: 13.1 µM [inhibitor, single point]",–
Cn1c(SCC(N)=O)nnc1-c1cnccn1,–,inactive: 14.5%
CCCCC1=CC2=C(c3ccco3)C(=O)C(C)(OC(=O)c3ccc(OC)cc3)C(=O)C2=CN1C1CCCCC1 (stereo unspecified),–,inactive: -10.9%
CC1=C(C(=O)OC(C)C)C(c2cccnc2)n2ncnc2N1 (stereo unspecified),"inconclusive: 10.4 µM [inhibitor, single point]",–
O=C(ONC1=NCCCCC1)c1cccc([N+](=O)[O-])c1,"inconclusive: 18.5 µM [inhibitor, single point]",–
Cc1ccc(S(=O)(=O)NCc2ccncc2)c(C)c1C,active: 11.7 µM,–
Cc1cc(C)c(C)c(S(=O)(=O)N2CCC(C(=O)N3CC(C)CC(C)C3)CC2)c1C (stereo unspecified),"inconclusive: 13.1 µM [inhibitor, single point]",–
COc1ccccc1NC(=O)N1CCCC1C(=O)Nc1ccc(NC(C)=O)cc1 (stereo unspecified),"inconclusive: 10.4 µM [inhibitor, partial curve, poor fit]",–
CC(=O)Nc1cccc(NC(=O)c2cc3ccccc3o2)c1,–,inactive: 188%
Nc1nc(-c2ccccc2)cn1N,"inconclusive: 0.0029 µM [inhibitor, full curve, poor fit]",–
C/C(=N\NC(=O)c1cc(C)nc2ccccc12)c1cccc(Cl)c1,"inconclusive: 14.7 µM [inhibitor, single point]",–
COc1ccccc1CNC(=O)C1CC(c2ccccc2F)=NO1 (stereo unspecified),–,inactive: 93.7%
COC(=O)C1=C(c2ccccc2OCc2ccccc2)C[C@@H]2CC[C@H]1N2C(=O)NCc1ccc(OC)cc1,"inconclusive: 2.62 µM [inhibitor, full curve]",–

# By substructure: the compounds so far containing a COOH group
Compound,Potency,"activity change, negative = inhibition"
O=C(O)CSc1nnc(CNc2cccc(C(F)(F)F)c2)n1Cc1ccco1,active: 6.57 µM,–
COc1ccc(C(=O)/C=C/c2cccc(OCc3ccccc3)c2)cc1CSCC(=O)O,active: 4.65 µM,–
COc1cc(NC(=O)CCCOc2ccc(Cl)cc2Cl)c(C(=O)O)cc1OC,–,inactive: 5.41%
Cc1oc(C(=O)O)cc1COc1cccc2cccnc12,"inconclusive: 0.0165 µM [inhibitor, full curve, poor fit]",–
